The text below walks through data of patent US7312302B2, “Compositions for the detection of enzyme activity in biological samples and methods of use thereof” (Oncolmmunin, Inc., priority 1997, dated 2007).

Non-standard residues stand in square brackets, D forms with d. Residues, ends and D or L forms follow the SMILES beside them. *: point of attachment. X2 = CN(C)c1ccc2c(-c3cc(C(=O)*)ccc3C(=O)[O-])c3ccc(=[N+](C)C)cc-3oc2c1; X3 = CCN=c1cc2oc3cc(NCC)c(C)cc3c(-c3cc(C(=O)*)ccc3C(=O)O)c-2cc1C; X1 = CN(C)c1ccc2c(c1)Oc1cc(N(C)C)ccc1C21OC(=O)c2ccc(C(=O)*)cc21; 5FAM = O=C1OC2(c3ccc(O)cc3Oc3cc(O)ccc32)c2ccc(C(=O)*)cc21; Nle = CCCC[C@H](N)C(=O)O

The nature of the data set: Percent fluorescence quenching, intact vs enzyme digested labeled peptide. The conditions noted are these: for % Q − (1 − (Io/Ic)) × 100: Io intact labeled peptide, Ic enzyme digested labeled peptide; for degree of quenching: intact peptide relative to cleaved solution.

With `CCCC[C@H](NC(=O)[C@@H]1CCCN1C(=O)[C@@H](NC(=O)[C@H](C)NC(=O)[C@H](CC(=O)O)NC(=O)c1ccc(C(=O)O)c(-c2c3cc(C)c(=NCC)cc-3oc3cc(NCC)c(C)cc23)c1)[C@@H](C)CC)C(=O)N[C@@H](CO)C(=O)N[C@H](C(=O)N1CCC[C@H]1C(=O)N[C@@H](CCCCNC(=O)c1ccc(C(=O)O)c(-c2c3cc(C)c(=NCC)cc-3oc3cc(NCC)c(C)cc23)c1)C(=O)NCC(=O)N[C@@H](Cc1ccc(O)cc1)C(=O)O)[C@@H](C)CC` [DER-NorFes-DER] (X3-DAIP[Nle]SIPK(X3)GY-OH; C-terminus assumed), the “% Q − (1 − (Io/Ic)) × 100” value worked out at 90%. Take `CCCC[C@H](NC(=O)[C@@H]1CCCN1C(=O)[C@@H](NC(=O)[C@H](C)NC(=O)[C@H](CC(=O)O)NC(=O)c1ccc2c(c1)C(=O)OC21c2ccc(O)cc2Oc2cc(O)ccc21)[C@@H](C)CC)C(=O)N[C@@H](CO)C(=O)N[C@H](C(=O)N1CCC[C@H]1C(=O)N[C@@H](CCCCNC(=O)c1ccc2c(c1)C(=O)OC21c2ccc(O)cc2Oc2cc(O)ccc21)C(=O)NCC(=O)N[C@@H](Cc1ccc(O)cc1)C(=O)O)[C@@H](C)CC` [Compound F1-NorFes-F1] (5FAM-DAIP[Nle]SIPK(5FAM)GY-OH; C-terminus assumed): the “% Q − (1 − (Io/Ic)) × 100” value worked out at 55% and the “degree of quenching” value worked out at 55%. Regarding `CCCC[C@H](NC(=O)[C@@H]1CCCN1C(=O)[C@@H](NC(=O)[C@H](C)NC(=O)[C@H](CC(=O)O)NC(=O)[C@@H](N)CCCCNC(=O)c1ccc2c(c1)C1(OC2=O)c2ccc(N(C)C)cc2Oc2cc(N(C)C)ccc21)[C@@H](C)CC)C(=O)N[C@@H](CO)C(=O)N[C@H](C(=O)N1CCC[C@H]1C(=O)N[C@@H](CCCCNC(=O)c1ccc2c(c1)C1(OC2=O)c2ccc(N(C)C)cc2Oc2cc(N(C)C)ccc21)C(=O)NCC(=O)N[C@@H](Cc1ccc(O)cc1)C(=O)O)[C@@H](C)CC` [6-TMR-K-NorFes-6-TMR] (H-K(X1)DAIP[Nle]SIPK(X1)GY-OH; N-terminus and C-terminus assumed), the “% Q − (1 − (Io/Ic)) × 100” value was 92%. As for `CCCC[C@H](NC(=O)[C@@H]1CCCN1C(=O)[C@@H](NC(=O)[C@H](C)NC(=O)[C@H](CC(=O)O)NC(=O)[C@@H](N)CCCCNC(=O)c1ccc(C(=O)[O-])c(-c2c3ccc(=[N+](C)C)cc-3oc3cc(N(C)C)ccc23)c1)[C@@H](C)CC)C(=O)N[C@@H](CO)C(=O)N[C@H](C(=O)N1CCC[C@H]1C(=O)N[C@@H](CCCCNC(=O)c1ccc(C(=O)O)c(-c2c3cc(C)c(=NCC)cc-3oc3cc(NCC)c(C)cc23)c1)C(=O)NCC(=O)N[C@@H](Cc1ccc(O)cc1)C(=O)O)[C@@H](C)CC` [6-TMR-K-NorFes-DER] (H-K(X2)DAIP[Nle]SIPK(X3)GY-OH; N-terminus and C-terminus assumed), the “% Q − (1 − (Io/Ic)) × 100” value amounted to 97%.

As for `CCCC[C@H](NC(=O)[C@@H]1CCCN1C(=O)[C@@H](NC(=O)[C@H](C)NC(=O)[C@H](CC(=O)O)NC(=O)c1ccc(C(=O)[O-])c(-c2c3ccc(=[N+](C)C)cc-3oc3cc(N(C)C)ccc23)c1)[C@@H](C)CC)C(=O)N[C@@H](CO)C(=O)N[C@H](C(=O)N1CCC[C@H]1C(=O)N[C@@H](CCCCNC(=O)c1ccc(C(=O)O)c(-c2c3cc(C)c(=NCC)cc-3oc3cc(NCC)c(C)cc23)c1)C(=O)NCC(=O)N[C@@H](Cc1ccc(O)cc1)C(=O)O)[C@@H](C)CC` [6-TMR-NorFes-DER] (X2-DAIP[Nle]SIPK(X3)GY-OH; C-terminus assumed), the “% Q − (1 − (Io/Ic)) × 100” value is given as 94% and the “degree of quenching” value amounted to 94%.

As to `CCCC[C@H](NC(=O)[C@@H]1CCCN1C(=O)[C@@H](NC(=O)[C@H](C)NC(=O)[C@H](CC(=O)O)NC(=O)c1ccc2c(c1)C1(OC2=O)c2ccc(N(C)C)cc2Oc2cc(N(C)C)ccc21)[C@@H](C)CC)C(=O)N[C@@H](CO)C(=O)N[C@H](C(=O)N1CCC[C@H]1C(=O)N[C@@H](CCCCNC(=O)c1ccc2c(c1)C1(OC2=O)c2ccc(N(C)C)cc2Oc2cc(N(C)C)ccc21)C(=O)NCC(=O)N[C@@H](Cc1ccc(O)cc1)C(=O)O)[C@@H](C)CC` [6-TMR-NorFes-6-TMR] (X1-DAIP[Nle]SIPK(X1)GY-OH; C-terminus assumed), the “% Q − (1 − (Io/Ic)) × 100” value was determined as 90% and the “degree of quenching” value came to 90%.
